In article PMC10640585, “The E3 ligase Riplet promotes RIG-I signaling independent of RIG-I oligomerization” (Nature Communications, 2023) one finds binding data, which are given here for one molecule.

Results are given in words; binding and its absence hold for the method and conditions named. Some entries that bind do so weakly or less than the wild type.

For the experiment, the target named is T1, Riplet, full-length (Riplet-FL) (human), Q8IUD6.
T1 chain: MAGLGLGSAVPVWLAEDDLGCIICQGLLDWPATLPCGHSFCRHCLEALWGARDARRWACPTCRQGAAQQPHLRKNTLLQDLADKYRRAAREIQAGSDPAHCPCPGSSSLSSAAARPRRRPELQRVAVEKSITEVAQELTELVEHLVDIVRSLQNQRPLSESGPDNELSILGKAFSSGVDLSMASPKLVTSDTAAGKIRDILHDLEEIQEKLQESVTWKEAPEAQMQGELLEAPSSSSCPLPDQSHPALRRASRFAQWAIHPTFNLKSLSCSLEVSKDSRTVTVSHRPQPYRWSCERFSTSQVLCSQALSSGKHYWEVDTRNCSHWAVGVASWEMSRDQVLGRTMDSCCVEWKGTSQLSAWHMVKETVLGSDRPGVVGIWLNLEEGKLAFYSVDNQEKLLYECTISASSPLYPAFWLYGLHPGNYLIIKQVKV
The experiment is described as follows: cryo-EM structure; RIG-I, p3dsRNA24 and Riplet mixed 8:1:8, complex isolated on Superdex 200 (25 mM HEPES pH 7.4, 200 mM NaCl, 5 mM BME); 2:1:2 RIG-I:RNA:Riplet particles; three maps at 3.2, 4.0 and 3.9 Å; both purified. The conditions noted are these: remark: other sources report otherwise.

B1: Riplet, full-length (Riplet-FL), Q8IUD6 1-432 (enzyme)
chain: MAGLGLGSAVPVWLAEDDLGCIICQGLLDWPATLPCGHSFCRHCLEALWGARDARRWACPTCRQGAAQQPHLRKNTLLQDLADKYRRAAREIQAGSDPAHCPCPGSSSLSSAAARPRRRPELQRVAVEKSITEVAQELTELVEHLVDIVRSLQNQRPLSESGPDNELSILGKAFSSGVDLSMASPKLVTSDTAAGKIRDILHDLEEIQEKLQESVTWKEAPEAQMQGELLEAPSSSSCPLPDQSHPALRRASRFAQWAIHPTFNLKSLSCSLEVSKDSRTVTVSHRPQPYRWSCERFSTSQVLCSQALSSGKHYWEVDTRNCSHWAVGVASWEMSRDQVLGRTMDSCCVEWKGTSQLSAWHMVKETVLGSDRPGVVGIWLNLEEGKLAFYSVDNQEKLLYECTISASSPLYPAFWLYGLHPGNYLIIKQVKV
For B1, the binding result is given as “binds”.
